From the supplement of paper PMC11150407 come the findings set out here.

Several values for one entry are separate records, joined by “and”; a condition that tells them apart may be missing. Identical values can stand only once. Counter-ions that a name gives are not always drawn. About 180 (8.6%) of roughly 2,100 compounds showed an effect of 50% or more. The list shows a part of the results.

The test system of this assay is MOLM1 and UCSD/AML1 (averaged). In words: cell viability relative to DMSO control (POC); higher = less growth inhibition. The settings on record: 1 µM; 72 h. The protocol: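 Primary viability screen in the 3q26 EVI1-high AML cell lines MOLM1 and UCSD/AML1 (1.5e3 cells/well, 384-well), compounds at 1 uM for 72 h. ATP CellTiter-Glo read-out given as percent of viable cells over DMSO control (POC), averaged over duplicates. DMSO was the negative control and 5 uM etoposide the positive control. This mapping covers the MicroSource Spectrum and Selleck anticancer libraries (drug names).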
On to `CC1(C)O[C@H]2CC(=O)OC[C@]23[C@H]2CC[C@@]4(C)[C@H](c5ccoc5)OC(=O)[C@H]5O[C@]54[C@]2(C)C(=O)C[C@@H]13`, for which the cell viability stood at 92.5%.

As for `CC12CCC(CC1=O)C2(C)C` (stereo unspecified), the cell viability is 114%. Turning to `C[C@@H]1NC(=O)[C@@H](N)CNC(=O)[C@H](C2CCNC(=N)N2)NC(=O)/C(=C/NC(N)=O)NC(=O)[C@H](CNC(=O)CC(N)CCCN)NC1=O.N=C1NCC[C@H]([C@@H]2NC(=O)/C(=C/NC(N)=O)NC(=O)[C@H](CNC(=O)C[C@@H](N)CCCN)NC(=O)[C@H](CO)NC(=O)[C@@H](N)CNC2=O)N1`, the cell viability was determined as 114%. On to `C=C[C@@](C)(O)CCC1C(=C)CCC2[C@@](C)(CO)CCC[C@]12C` (stereo partly specified), for which the cell viability was 112%.

`CN[C@@H]1[C@@H](O[C@H]2O[C@H](CO)[C@@H](N)[C@H](O)[C@H]2O)OC2C[C@@H](N)[C@@H](O[C@H]3[C@H](O)[C@@H](O)[C@H](N)C[C@@H]3N)OC2[C@@H]1O` (stereo partly specified): the cell viability came out at 78.1%. For the molecule `CC(=O)Oc1cc(OC(C)=O)c2c(c1)O[C@H](c1ccc(OC(C)=O)c(OC(C)=O)c1)[C@@H](OC(C)=O)C2`, the cell viability is 96.7%. As for `CCCCCCCCCCCCCCCCCCCCCCO`, the cell viability was 101%. On to `CC(C)C[C@@H](C(=O)N[C@H](C(=O)OC1CCCC1)c1ccccc1)[C@H](O)C(=O)NO` [Tosedostat (CHR2797)], for which the cell viability was found to be 77.5%. The value for `NCCCC(=O)O` [gamma-AMINOBUTYRIC ACID] was 109%. In the case of `CN(C)C/C=C(/c1ccc(Br)cc1)c1cccnc1`, the cell viability turned out to be 95.9%. For `CC(C)(CO)C(O)C(=O)NCCCO` (stereo unspecified), the cell viability came out at 90%. On to `CCOc1ccc2ccccc2c1C(=O)N[C@@H]1C(=O)N2[C@@H]1SC(C)(C)[C@@H]2C(=O)O`, for which the cell viability is 71.7%. `CCN(CC)CCNC(=O)c1cc(Cl)c(N)cc1OC`: the cell viability was found to be 96.3%. With `Cn1cnc2c1c(=O)[nH]c(=O)n2C`, the cell viability came to 97.7%.

As to `O=C(O)CCNC(=O)c1ccccc1`, the cell viability was determined as 116%. `CO[C@H]1/C=C\C=C(/C)C(=O)NC2=CC(=O)C(NCCN(C)C)=C(C[C@@H](C)C[C@H](OC)[C@H](O)[C@@H](C)/C=C(\C)[C@@H]1OC(N)=O)C2=O` [17-DMAG HCl (Alvespimycin)]: the cell viability is 2.31%. With `CCC[C@@H]1C[C@@H](C(=O)N[C@@H]([C@H]2O[C@H](SC)[C@H](O)[C@@H](O)[C@H]2O)[C@H](C)Cl)N(C)C1`, the cell viability stood at 88.6%. As for `C[n+]1c2cc(N)ccc2cc2ccc(N)cc21`, the cell viability was 81.6%. On to `CC(C)[N+](C)(CCOC(=O)C1c2ccccc2Oc2ccccc21)C(C)C`, for which the cell viability came to 96.2%. On to `CN1CCC[C@@H]1Cc1c[nH]c2ccc(CCS(=O)(=O)c3ccccc3)cc12`, for which the cell viability was 85.7%.

For the molecule `CN(C)CCC=C1c2ccccc2COc2ccccc21`, the cell viability is 107%. With `OCc1cccnc1` the figure was 103%; with `O=Cc1ccccc1O[C@@H]1O[C@H](CO)[C@@H](O)[C@H](O)[C@H]1O`, 102%.

For the molecule `C[S+]([O-])c1ccc(-c2nc(-c3ccc(F)cc3)c(-c3ccncc3)[nH]2)cc1` (stereo unspecified), the cell viability was 106%.

Turning to `CC1=CC(=O)C(C(C)C)=CC1=O`, the cell viability turned out to be 97.2%. Turning to `O=C(O)c1ccccc1OP(=O)(O)O`, the cell viability is 102%. For the molecule `C/C=C(/C(=C/C)c1ccc(O)cc1)c1ccc(O)cc1`, the cell viability was 96.1%. Take `Cc1ncc([N+](=O)[O-])n1CC(C)O` (stereo unspecified): the cell viability is 110%.

In the case of `OCCn1cc(-c2cnc3nnn(Cc4ccc5ncccc5c4)c3n2)cn1`, the cell viability is 26.7%. For `CC1=C(/C=C/C(C)=C/C=C/C(C)=C/CO)C(C)(C)CCC1`, the cell viability came out at 101%.

For the molecule `Nc1cc(N2CCCCC2)nc(N)[n+]1[O-]`, the cell viability stood at 86.8%. As for `C=C[C@H]1CN2CC[C@H]1C[C@H]2[C@H](O)c1ccnc2ccc(OC)cc12`, the cell viability amounted to 107%.

Take `CC1(C)S[C@@H]2[C@H](NC(=O)[C@H](N)c3ccccc3)C(=O)N2[C@H]1C(=O)O`: the cell viability is 101%. The value for `CC1/C(=N/O)C[C@@H]2C[C@H]1C2(C)C` (stereo partly specified) was 102%; that for `O=c1n(CCCN2CCN(c3cccc(Cl)c3)CC2)nc2ccccn12` was 106%; that for `COc1ccc([C@@H](C)C(=O)c2ccc(O)cc2O)cc1` was 112%. The value for `C#Cc1cccc(Nc2ncnc3cc(OCCOC)c(OCCO)cc23)c1` [OSI-420 (Desmethyl Erlotinib)] was 42.9%; that for `NC(=O)c1cnccn1` was 104%; that for `Cc1nc2ccccn2c(=O)c1CCN1CCC(C(=O)c2ccc(F)cc2)CC1` was 112%. For the molecule `Nc1ccc(-c2ccc3ncc4ccc(=O)n(-c5cccc(C(F)(F)F)c5)c4c3c2)cn1` [Torin 2], the cell viability amounted to 10%. With `O[C@H]1[C@H](O)[C@@H](O)[C@H](O)[C@@H](O)[C@H]1O`, the cell viability was found to be 115%.

As for `C/C=C/c1ccc(OC)cc1`, the cell viability was found to be 93.8%. Take `C=C(C)[C@@H]1CC[C@]2(CO)CC[C@]3(C)[C@H](CC[C@@H]4[C@@]5(C)CC[C@H](O)C(C)(C)[C@@H]5CC[C@]43C)[C@@H]12`: the cell viability is 89.1%. With `COc1cccc2c1C(=O)c1c(O)c3c(c(O)c1C2=O)C[C@@](O)(C(=O)CO)C[C@@H]3O[C@H]1C[C@H](N)[C@@H](O)[C@H](C)O1` [Epirubicin Hydrochloride] the figure was 1.66%. Take `COc1cccc2c1C(=O)c1c(O)c3c(c(O)c1C2=O)C[C@@](O)(C(=O)CO)C[C@@H]3O[C@H]1C[C@H](N)[C@@H](O)[C@H](C)O1`: the cell viability amounted to 5.86%. In the case of `COc1ccc2c(c1)CC[C@@H]1[C@@H]2CC[C@]2(C)[C@@H](O)CC[C@@H]12`, the cell viability was found to be 96.8%. As for `CC(=O)O[C@H]1C(=O)[C@@]2(C)[C@H]([C@H](OC(=O)c3ccccc3)[C@]3(O)C[C@H](OC(=O)[C@H](O)[C@@H](NC(=O)c4ccccc4)c4ccccc4)C(C)=C1C3(C)C)[C@]1(OC(C)=O)CO[C@@H]1C[C@@H]2O` [Paclitaxel (Taxol)], the cell viability was 12.3%.

Turning to `CC(=O)O[C@H]1C(=O)[C@@]2(C)[C@H]([C@H](OC(=O)c3ccccc3)[C@]3(O)C[C@H](OC(=O)[C@H](O)[C@@H](NC(=O)c4ccccc4)c4ccccc4)C(C)=C1C3(C)C)[C@]1(OC(C)=O)CO[C@@H]1C[C@@H]2O`, the cell viability was 11.7%. Regarding `CC(N)CCCC(C)(C)O` (stereo unspecified), the cell viability was determined as 117%. With `CN1CCCN=C1/C=C/c1cccc(O)c1` the figure was 94.1%; with `NC(=O)c1ccc(-c2nc(-c3ccccn3)c(-c3ccc4c(c3)OCO4)[nH]2)cc1`, 119%.

For `CC(=O)N(c1onc(C)c1C)S(=O)(=O)c1ccc(N)cc1`, the cell viability is 75.4%. `Cc1cc(O)cc(C)c1Cl`: the cell viability stood at 98.1%. Turning to `C[C@@H](O[C@H]1OCCN(Cc2n[nH]c(=O)[nH]2)[C@H]1c1ccc(F)cc1)c1cc(C(F)(F)F)cc(C(F)(F)F)c1` [Aprepitant (MK-0869)], the cell viability was 85.8%. For `Oc1cccc(O)c1`, the cell viability was 101%. `C=C1CCC(C2CC(=O)OC2=O)C(=O)CCC2C1CC2(C)C` (stereo unspecified): the cell viability came to 104%. Consider `COC(=O)c1c(C)cc(OC)cc1O`, for which the cell viability is 94.6%.

For `CCn1c(-c2nonc2N)nc2c(C#CC(C)(C)O)ncc(OC[C@H]3CCCNC3)c21`, the cell viability was determined as 54%. Turning to `NC(=O)CC[C@H](N)C(=O)O`, the cell viability was 102% and 104%. With `O=C1c2ccccc2C(=O)C1c1ccc(Br)cc1` the figure was 99.1%; with `CC=CC1=C(C(=O)O)N2C(=O)[C@@H](NC(=O)[C@H](N)c3ccc(O)cc3)[C@H]2SC1`, 103%; with `Cc1cc2c(s1)Nc1ccccc1N=C2N1CCN(C)CC1`, 86.1%.

For `CC(C)OC(=O)C(C)(C)Oc1ccc(C(=O)c2ccc(Cl)cc2)cc1`, the cell viability is 100%. Take `c1coc(CNc2ncnc3[nH]cnc23)c1`: the cell viability worked out at 107%. For `CCOc1ccc2nc(S(N)(=O)=O)sc2c1`, the cell viability is 96.8%. The value for `C/C(=C\C(=O)OCCCCCCCCC(=O)O)C[C@@H]1OC[C@H](C[C@@H]2O[C@H]2[C@@H](C)[C@H](C)O)[C@@H](O)[C@H]1O` was 81.8%. On to `COc1ccc(C2=N[C@@H](c3ccc(Cl)cc3)[C@@H](c3ccc(Cl)cc3)N2C(=O)N2CCNC(=O)C2)c(OC(C)C)c1` [Nutlin-3], for which the cell viability is 74.2%. For `CN/C(=N\CCSCc1nc[nH]c1C)NC#N`, the cell viability was determined as 91%. With `N[C@@H](CSCSC[C@H](N)C(=O)O)C(=O)O` the figure was 99.3%. As for `NC(=O)c1ccc(I)c([N+](=O)[O-])c1` [Iniparib (BSI-201)], the cell viability turned out to be 103%. As to `CC(=O)O[C@@H]1C=C[C@]2(C)C(C[C@@H](OC(C)=O)[C@]3(C)C4=CC(=O)O[C@H](c5ccoc5)[C@@]4(C)CCC23)C1(C)C` (stereo partly specified), the cell viability stood at 94.4%. On to `O=C(O)c1cc(/N=N/c2ccc(S(=O)(=O)Nc3ccccn3)cc2)ccc1O`, for which the cell viability was determined as 101%. As for `C(=C\c1ccccc1)/CN1CCN(C(c2ccccc2)c2ccccc2)CC1`, the cell viability was found to be 97.7%.

Consider `C[C@@H]1C[C@H]2[C@@H]3CCC4=CC(=O)C=C[C@]4(C)[C@@]3(F)[C@@H](O)C[C@]2(C)[C@@]1(O)C(=O)COP(=O)(O)O`, for which the cell viability is 78.1%. With `C[C@]12CC[C@@H]3c4ccc(OC(=O)c5ccccc5)cc4CC[C@H]3[C@@H]1CC[C@@H]2O` the figure was 90%; with `Cc1ccc(F)c(NC(=O)Nc2ccc(-c3cccc4[nH]nc(N)c34)cc2)c1` [Linifanib (ABT-869)], 66.1%; with `CC(C)OC(=O)C1=CN(C(=O)c2ccc(F)c(F)c2)CC(C)(C)c2c1[nH]c1ccccc21` [Turofexorate Isopropyl (XL335)], 85.6%.

As to `CN1CCN(C(c2ccccc2)c2ccccc2)CC1`, the cell viability amounted to 102%. As to `OCCN(CCO)c1nc(N2CCCCC2)c2nc(N(CCO)CCO)nc(N3CCCCC3)c2n1`, the cell viability was found to be 104%.

As to `Cc1ccc(NC(=O)c2cccc(C(C)(C)C#N)c2)cc1Nc1ccc2ncn(C)c(=O)c2c1`, the cell viability amounted to 42.7%.

As to `CC[C@H](CO)Nc1nc(NCc2ccccc2)c2ncn(C(C)C)c2n1` [Roscovitine (Seliciclib, CYC202)], the cell viability was 106%. `O=C(O)c1ccccc1C(=O)Nc1ccc(S(=O)(=O)Nc2nccs2)cc1`: the cell viability amounted to 111%. As for `C[N+](C)(C)CC(=O)O`, the cell viability was 101%. In the case of `NC[C@@H]1O[C@@H](O[C@H]2[C@H](O)[C@@H](O[C@H]3O[C@H](CO)[C@@H](O)[C@H](N)[C@H]3O)[C@H](N)C[C@@H]2N)[C@@H](O)[C@H](O)[C@H]1O`, the cell viability was 109%.

With `CC1CC(OC(=O)c2ccccc2O)CC(C)(C)C1` (stereo unspecified), the cell viability came to 87.2%. `C[C@H](CCC(=O)O)[C@H]1CC[C@H]2[C@@H]3[C@@H](O)C[C@@H]4C[C@H](O)CC[C@]4(C)[C@H]3CC[C@]12C`: the cell viability was 94.9%.
